In US8334261B2, “Osteopenia animal model” (Oriental Yeast Co., Ltd., priority 2006, dated 2012):

Test system: GST-RANKL-administered 7-week-old female C57BL/6 mice
Assay: Comparison of a plurality of bisphosphonates in GST-RANKL mice
Format: in vivo, mouse
Conditions: 300 μg/kg; 0.6-mm point
Method: GST-RANKL was intraperitoneally administered 3 times at 1 mg/kg every 24 hours. The femur, tibia, and serum were collected from each mouse 1.5 hours after the 3rd GST-RANKL administration. Measurement of TRAP-5b, calcium (Ca), and alkaline phosphatase (ALP) in the serum was carried out. Each femur was subjected to bone density measurement with pQCT and image analysis with micro CT.

SMILES: NCCCC(O)(P(=O)(O)O)P(=O)(O)O [alendronate]
- bone density decrease suppressed to: 1%
